Here are results for 103 compounds from the supplement of paper PMC5770031.

Some of the results follow. This data set is noisy: repeats of one test often differ as much as different tests do.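 Flies heterozygous for the ATM8 allele over a balancer chromosome carrying normal ATM were mated with each other on treated food. Parents laid eggs for 5–6 days and the young then developed for about 12 days, so both parents and larvae ate the compound. The read-out is the share of all emerged adults that carry two ATM8 copies, compared with 2% DMSO control vials. The paper called compounds neutral at 10–20% such offspring, harmful below 10%, and helpful above 20%.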

In the assay the test system is Drosophila melanogaster ATM8 (temperature-sensitive ATM allele). The assay can be described thus: fraction of eclosed F1 progeny that are homozygous ATM8 (rescue of developmental lethality); higher = more rescue of ATM8 developmental lethality; extreme values may be limits of the assay. To be noted: compound concentration applied to food 0.2 mM; 21 °C.
Turning to `COc1ccc2c(c1)O[C@H]1c3ccc(OC)cc3OC[C@@H]21`, the “fraction of eclosed F1 progeny that are homozygous ATM8” value (from here on “fraction”) turned out to be 0.333.
Under `c1ccc(CN(CC2=NCCN2)c2ccccc2)cc1` stands 0; under `NC(=O)NS(=O)(=O)c1ccc(N)cc1`, 0.0488.
For the compound `CC(=O)N(CC(O)CN(C(C)=O)c1c(I)c(C(=O)NCC(O)CO)c(I)c(C(=O)NCC(O)CO)c1I)c1c(I)c(C(=O)NCC(O)CO)c(I)c(C(=O)NCC(O)CO)c1I` (stereo not drawn), the “fraction” value amounted to 0.0833.
Consider `Cc1cc(O)c2c(O)c3c(O)cccc3cc2c1`, for which the “fraction” value was 0.13.
Under `C=CCSCC1Nc2cc(Cl)c(S(N)(=O)=O)cc2S(=O)(=O)N1` (stereo not drawn) stands 0.0169.
Under `NC(=O)c1cccc(N)c1` stands 0.152; under `Cc1cc(-c2ccc(/N=N/c3ccc4c(S(=O)(=O)O)cc(S(=O)(=O)O)c(N)c4c3O)c(C)c2)ccc1/N=N/c1ccc2c(S(=O)(=O)O)cc(S(=O)(=O)O)c(N)c2c1O`, 0.185; under `COc1ccc(/C=C/c2cc(O)cc(O)c2)cc1`, 0.111.
As for `CC(=O)OCC(=O)[C@@]1(OC(C)=O)[C@@H](C)C[C@H]2[C@@H]3C[C@H](F)C4=CC(=O)C=C[C@]4(C)[C@@]3(F)[C@@H](O)C[C@@]21C`, the “fraction” value turned out to be 0.114.
As for `C[C@]1(Cn2ccnn2)[C@H](C(=O)O)N2C(=O)C[C@H]2S1(=O)=O`, the “fraction” value was found to be 0.0345.
For `CC[C@@H](CO)NCCN[C@@H](CC)CO`, the “fraction” value turned out to be 0.
For `CCN(CC)CCOCCOC(=O)C(CC)(CC)c1ccccc1`, the “fraction” value is 0.154.
As for `CCCCC/C=C\C/C=C\C/C=C\C/C=C\CCCC(=O)O`, the “fraction” value was 0.0833.
For the compound `Nc1ccccc1C(=O)CC(N)C(=O)O` (stereo not drawn), the “fraction” value was 0.029.
The result for `CC[C@H]1CN2CC[C@H]1C[C@H]2[C@H](O)c1ccnc2ccc(OC)cc12` reads 0.195.
Turning to `CCCOc1ccc(C(=O)OCCN(CC)CC)cc1N`, the “fraction” value turned out to be 0.255.
For `CC(=O)OCC(=O)[C@H]1CC[C@H]2[C@@H]3CCC4=CC(=O)CC[C@]4(C)[C@H]3CC[C@]12C`, the “fraction” value turned out to be 0.0606.
Consider `COc1cc(O)ccc1C(C)=O`, for which the “fraction” value is 0.3.
Under `O=c1[nH]c2ccccc2n1C1CCN(CCCC(c2ccc(F)cc2)c2ccc(F)cc2)CC1` stands 0.0606; under `CC(CN(C)C)CN1c2ccccc2Sc2ccccc21` (stereo not drawn), 0.226; under `CC1(C)[C@@H](OC(=O)CCC(=O)O)CC[C@]2(C)[C@H]3C(=O)C=C4[C@@H]5C[C@@](C)(C(=O)O)CC[C@]5(C)CC[C@@]4(C)[C@]3(C)CC[C@@H]12`, 0.167.
`CC(=O)[O][Hg][c]1ccccc1`: the “fraction” value worked out at 0.154.
For `N=C(N)NCCN1CCCCCCC1`, the “fraction” value amounted to 0.0667.
`CC(C)CCCC(C)NC(C)C` (stereo not drawn): the “fraction” value amounted to 0.149.
`Cc1cc2c(C(C)C)c(O)c(O)c(C=O)c2c(O)c1-c1c(C)cc2c(C(C)C)c(O)c(O)c(C=O)c2c1O`: the “fraction” value is 0.25.
For the compound `C=CCOC(Cn1ccnc1)c1ccc(Cl)cc1Cl` (stereo not drawn), the “fraction” value was found to be 0.127.
As for `CC(=O)Nc1cc([As](=O)(O)O)ccc1O`, the “fraction” value worked out at 0.109.
Regarding `CO/N=C(\C(=O)N[C@@H]1C(=O)N2C(C(=O)OC(C)OC(C)=O)=C(COC(N)=O)CS[C@H]12)c1ccco1` (stereo partly drawn), the “fraction” value is 0.204.
As for `COc1cc2c(cc1OC)[C@@H]1C(=O)c3ccc(OC)c(CC=C(C)C)c3O[C@@H]1CO2`, the “fraction” value came out at 0.0769.
On to `C=CCCCCCCCCC(=O)[O-].C=CCCCCCCCCC(=O)[O-].[Zn+2]`, for which the “fraction” value turned out to be 0.0125.
As to `CCNC(=O)/C=C/c1cccc(Br)c1`, the “fraction” value came to 0.
With `O=c1cc(-c2ccccc2)oc2cccc(O)c12`, the “fraction” value came out at 0.0526.
For the compound `NCCc1ccccc1`, the “fraction” value was determined as 0.16.
Consider `COC(=O)Nc1nc2cc([S+]([O-])c3ccccc3)ccc2[nH]1` (stereo not drawn), for which the “fraction” value stood at 0.192.
On to `COc1ccc2c(=O)c(CC(=O)O)coc2c1`, for which the “fraction” value amounted to 0.0317.
For `C[C@@H]1O[C@@H](O[C@@H]2C=C3CC[C@@H]4[C@H](CC[C@]5(C)[C@@H](c6ccc(=O)oc6)CC[C@]45O)[C@@]3(C)CC2)[C@H](O)[C@H](O)[C@H]1O`, the “fraction” value is 0.164.
Take `CNc1ccccc1C(=O)N1CCc2c([nH]c3ccccc23)C1=O`: the “fraction” value came out at 0.0238.
On to `Cc1cnc[nH]1`, for which the “fraction” value is 0.263.
For the compound `Cc1cc(N)c2ccccc2[n+]1CCCCCCCCCC[n+]1c(C)cc(N)c2ccccc21`, the “fraction” value stood at 0.0682.
Under `Nc1ccn([C@@H]2CS[C@H](CO)O2)c(=O)n1` stands 0.037; under `Nc1c2c(nc3ccccc13)CCCC2O` (stereo not drawn), 0; under `CN(C)C(=O)Oc1ccc[n+](C)c1`, 0.0374.
Regarding `COc1ccccc1OCC(O)COC(N)=O` (stereo not drawn), the “fraction” value came to 0.132.
The result for `FC(F)(F)COCC(F)(F)F` reads 0.0698; that for `CN1Cc2c(N)cccc2C(c2ccccc2)C1` (stereo not drawn), 0.08; that for `CCN[C@@H]1C[C@H](N)[C@@H](O[C@H]2OC(CN)=CC[C@H]2N)[C@H](O)[C@H]1O[C@H]1OC[C@](C)(O)[C@H](NC)[C@H]1O`, 0.
For `C=C(C)[C@@H]1CC=C(CO)CC1`, the “fraction” value is 0.0698.
As for `CC(=O)Oc1cccc(C)c1` [meta-CRESYL ACETATE], the “fraction” value was 0.17.
As to `CC1(C)CC2C1CCC1(C)OC2(C)CCC1O` (stereo not drawn), the “fraction” value is 0.104.
As for `NC(=O)[C@@H]1CCCN1C(=O)[C@H](Cc1c[nH]cn1)NC(=O)[C@@H]1CCC(=O)N1`, the “fraction” value came to 0.125.
Consider `CN(C)CC(c1ccc(O)cc1)C1(O)CCCCC1` (stereo not drawn), for which the “fraction” value turned out to be 0.229.
Consider `OCc1ccccc1O`, for which the “fraction” value is 0.148.
Regarding `O=C(c1ccccc1)c1ccc2n1CCC2C(=O)O` (stereo not drawn), the “fraction” value was found to be 0.103.
As to `N[C@@H](C(=O)O)[C@@H](O)[C@H](O)[C@H](O)CO`, the “fraction” value is 0.0577.
As to `COc1c(N2CCNC(C)C2)c(F)cc2c(=O)c(C(=O)O)cn(C3CC3)c12` (stereo not drawn), the “fraction” value was 0.087.
For `CC(C)Cn1c(=O)n(C)c(=O)c2[nH]cnc21`, the “fraction” value is 0.167.
Regarding `O=c1[nH]cnc2c1ncn2[C@@H]1O[C@H](CO)[C@@H](O)[C@H]1O`, the “fraction” value was found to be 0.271.
In the case of `COc1cc([C@@H]2c3cc4c(cc3[C@@H](O[C@@H]3O[C@@H]5CO[C@@H](c6cccs6)O[C@H]5[C@H](O)[C@H]3O)[C@H]3COC(=O)[C@H]23)OCO4)cc(OC)c1O`, the “fraction” value came to 0.471.
In the case of `O=c1ccc2ccccc2o1`, the “fraction” value is 0.203.
Take `CC1(C)C=Cc2cc3ccc(=O)oc3cc2O1`: the “fraction” value was 0.176.
As to `NCCOB(c1ccccc1)c1ccccc1`, the “fraction” value is 0.12.
As to `C/C(=C\CO)CC[C@H](C)CCC[C@H](C)CCCC(C)C`, the “fraction” value was 0.0893.
For `COc1cc(OC)c2c(=O)c(-c3ccccc3OC)coc2c1`, the “fraction” value stood at 0.162.
For `CN(C)CCCN1c2ccccc2Sc2ccc(Cl)cc21`, the “fraction” value stood at 0.0811.
`CCOC(=O)c1c(C)cc(O)cc1O`: the “fraction” value is 0.16.
As for `O=C(O)[C@H]1O[C@@H](Oc2cc3oc(-c4ccccc4)cc(=O)c3c(O)c2O)[C@H](O)[C@@H](O)[C@@H]1O`, the “fraction” value was determined as 0.286.
As for `O=C(O)[C@H](O)[C@@](O)(Cc1ccc(O)cc1)C(=O)O`, the “fraction” value amounted to 0.156.
Take `COc1ccnc(C[S+]([O-])c2nc3cc(OC(F)F)ccc3[nH]2)c1OC` (stereo not drawn): the “fraction” value was 0.138.
With `O=c1[nH]c(=O)c2ccccc2o1`, the “fraction” value amounted to 0.217.
Take `Nc1ccn([C@@H]2O[C@H](CO)[C@@H](O)[C@@H]2O)c(=O)n1`: the “fraction” value came out at 0.0667.
With `OC[C@H]1O[C@H](OCC2O[C@@H](O)[C@H](O)[C@@H](O)[C@@H]2O)[C@H](O)[C@@H](O)[C@H]1O` (stereo partly drawn), the “fraction” value worked out at 0.222.
Consider `CC(=O)[C@H]1CC[C@H]2[C@@H]3CCC4C[C@H](O)CC[C@]4(C)[C@H]3C[C@H](O)[C@]12C` (stereo partly drawn) [3alpha,12alpha-DIHYDROXY-PREGNAN-20-ONE], for which the “fraction” value turned out to be 0.208.
`CC(=O)N[C@@H](C=O)[C@@H](O)[C@H](O)[C@H](O)CO`: the “fraction” value was 0.0968.
Regarding `CCCCN1CCCCC1C(=O)Nc1c(C)cccc1C` (stereo not drawn), the “fraction” value amounted to 0.14.
Consider `CCOC(=O)NNc1nncc2ccccc12`, for which the “fraction” value amounted to 0.109.
Turning to `O=[N+]([O-])c1ccc(O)c([N+](=O)[O-])c1`, the “fraction” value came out at 0.0312.
Under `CC(=O)c1c(O)cc(O)cc1O` stands 0.0851.
Under `CC1(C)CCC2=C(O1)C(=O)c1ccccc1C2=O` [alpha-LAPACHONE] stands 0.302; under `O=c1c(-c2cc(O)c(O)c(O)c2)coc2cc(O)c(O)c(O)c12`, 0.216.
Take `NCCCNCCSP(=O)(O)O`: the “fraction” value was found to be 0.0635.
With `CC[C@@H](C(=O)[C@@H](C)[C@@H](O)[C@H](C)CCc1ccc(C)c(O)c1C(=O)O)[C@H]1O[C@](CC)([C@H]2CC[C@](O)(CC)[C@H](C)O2)C[C@@H]1C`, the “fraction” value is 0.0576.
Under `CC(C)(C)c1ccc(C(O)CCCN2CCC(C(O)(c3ccccc3)c3ccccc3)CC2)cc1` (stereo not drawn) stands 0.0526; under `Cc1cc(=O)oc2c(O)c(O)ccc12`, 0.239.
In the case of `CC12CCCC(O)(C1)C1CC(C)(C)C1CC2` (stereo not drawn) [beta-CARYOPHYLLENE ALCOHOL], the “fraction” value came to 0.135.
The result for `Cc1nc(-c2ccc(OCC(C)C)c(C#N)c2)sc1C(=O)O` reads 0.172.
As to `O=c1ccn([C@@H]2O[C@H](COP(=O)(O)OP(=O)(O)OP(=O)(O)O)[C@@H](O)[C@H]2O)c(=O)[nH]1`, the “fraction” value is 0.027.
As for `COc1cc(O)c2c(=O)cc(-c3ccc(O)cc3)oc2c1`, the “fraction” value was 0.279.
Consider `COc1ccc(CC2c3cc(OC)c(OC)cc3CC[N+]2(C)CCC(=O)OCCCCCOC(=O)CC[N+]2(C)CCc3cc(OC)c(OC)cc3C2Cc2ccc(OC)c(OC)c2)cc1OC` (stereo not drawn), for which the “fraction” value came to 0.0417.
Under `CC(=O)[C@H]1CC[C@H]2[C@@H]3CC=C4C[C@@H](O)CC[C@]4(C)[C@H]3CC[C@]12C` stands 0.0377; under `CN(C)c1ccc(C(=C2C=CC(=[N+](C)C)C=C2)c2ccc(N(C)C)cc2)cc1`, 0.12.
The result for `CON` reads 0.0816.
Turning to `CCN(CCO)CCCC(C)Nc1ccnc2cc(Cl)ccc12` (stereo not drawn), the “fraction” value is 0.113.
Under `CSc1ccc2c(c1)N(CCC1CCCCN1C)c1ccccc1S2` (stereo not drawn) stands 0.1; under `COc1cc(O)c2c(=O)c(O)c(-c3ccccc3)oc2c1`, 0.229.
Under `CC/C(=C(/CC)c1ccc(O)cc1)c1ccc(O)cc1` stands 0.0645; under `CC1=C(/C=C/C(C)=C/C=C/C(C)=C\C(=O)O)C(C)(C)CCC1`, 0.15; under `Cc1cc(-c2ccccc2)nnc1NCCN1CCOCC1`, 0.205.
On to `NC(N)=Nc1nc(CSCC/C(N)=N/S(N)(=O)=O)cs1`, for which the “fraction” value is 0.037.
Under `CN[C@@H](Cc1c[nH]c2ccccc12)C(=O)O` stands 0.163; under `COC1(C)CCC2OC2(C)CCC2C1CC2(C)C` (stereo not drawn), 0.154.
In the case of `CC(=O)NCCc1ccc(O)c(-c2c(O)c(O)c3c(c2O)C(=O)c2c(cc(O)c(C(=O)O)c2C(=O)O)C3=O)c1`, the “fraction” value came out at 0.279.
`CN(C)[C@@H]1C(O)=C(C(N)=O)C(=O)[C@@]2(O)C(O)=C3C(=O)c4c(O)cccc4[C@@](C)(O)[C@H]3[C@H](O)[C@@H]12`: the “fraction” value was 0.174.
